# From patent publication US20210395742
# Sequences of proteins named here, by UniProt entry; tags and fusion partners are left off. A change or cut given only in a name is not applied to a line headed by its entry. Residues count along the entry.
# UniProt P02769, 25-607: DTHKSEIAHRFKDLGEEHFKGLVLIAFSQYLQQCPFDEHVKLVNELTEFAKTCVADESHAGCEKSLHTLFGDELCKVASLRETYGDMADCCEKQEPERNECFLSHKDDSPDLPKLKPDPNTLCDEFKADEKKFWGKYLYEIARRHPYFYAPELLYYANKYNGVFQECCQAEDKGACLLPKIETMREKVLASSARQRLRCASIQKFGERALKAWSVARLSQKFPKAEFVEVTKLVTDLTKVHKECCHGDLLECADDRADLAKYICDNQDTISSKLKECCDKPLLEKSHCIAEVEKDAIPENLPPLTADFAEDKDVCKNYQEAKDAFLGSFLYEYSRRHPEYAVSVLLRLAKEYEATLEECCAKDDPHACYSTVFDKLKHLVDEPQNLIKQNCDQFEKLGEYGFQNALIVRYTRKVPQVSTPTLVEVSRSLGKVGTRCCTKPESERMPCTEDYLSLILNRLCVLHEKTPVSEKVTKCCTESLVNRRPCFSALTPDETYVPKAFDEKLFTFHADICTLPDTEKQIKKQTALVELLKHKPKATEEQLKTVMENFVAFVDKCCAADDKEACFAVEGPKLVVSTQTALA
# UniProt P22629: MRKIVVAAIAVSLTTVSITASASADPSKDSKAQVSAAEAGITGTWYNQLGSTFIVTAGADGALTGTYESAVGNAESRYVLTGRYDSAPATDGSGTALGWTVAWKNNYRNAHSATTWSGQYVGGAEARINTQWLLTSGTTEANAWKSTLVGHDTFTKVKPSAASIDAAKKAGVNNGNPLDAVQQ
# Construct, isoform or probe ends are uncertain for at least one entry. For some of these results: No signal at the amounts used counts as a negative. For some of these results: The comparison behind a weaker result is the experiment's own reference, which may not be listed here. For some of these results: The direction of at least one scale is not stated here.
# Assays:
# Rat IgG = experiment: EMSA; conditions: T = 5-ethynyldeoxyuridine clicked with sulfo-HSAB (NHS ester); core of consensus SEQ:22, flanks not given; purified native protein; label: fluorescence detection; single-stranded DNA
# Guinea pig IgG = experiment: EMSA; conditions: T = 5-ethynyldeoxyuridine clicked with sulfo-HSAB (NHS ester); core of consensus SEQ:22, flanks not given; purified native protein; label: fluorescence detection; single-stranded DNA
# Rabbit IgG = experiment: EMSA; conditions: T = 5-ethynyldeoxyuridine clicked with sulfo-HSAB (NHS ester); core of consensus SEQ:22, flanks not given; purified native protein; label: fluorescence detection; single-stranded DNA
# [1] = target: Bovine serum albumin (BSA) (Bos taurus) (UniProt P02769); experiment: EMSA; conditions: T = 5-ethynyldeoxyuridine clicked with sulfo-HSAB (NHS ester); core of consensus SEQ:22, flanks not given; purified native protein; protein details: ThermoFisher Scientific, non-denatured RNase-free; label: fluorescence detection; single-stranded DNA
# Streptavidin = Streptavidin (UniProt P22629); experiment: EMSA; conditions: all U = 5-ethynyluridine clicked with sulfo-HSAB (NHS ester), purified recombinant protein, label: annealed IRDye 700 DNA 21-mer; for binding result: random region only [positions count without the 21-nt 5-prime fixed region]
# [2] = target: Bovine serum albumin (BSA) (Bos taurus) (UniProt P02769); experiment: competition with a labelled probe; conditions: all U = 5-ethynyluridine clicked with sulfo-HSAB (NHS ester); random region only, constant flanks as transcribed from SEQ:6 library [positions count without the 21-nt 5-prime fixed region]; equal band intensities at 8-16 uM BSA vs 10 nM streptavidin, pH 7.2; purified native protein; protein details: ThermoFisher Scientific, non-denatured RNase-free; label: annealed IRDye 700 DNA 21-mer; scale: fold specificity for streptavidin over BSA
sequence,measurement,setting,value
AGCGCGGAACCGTGCCTGGC [Fc clone 1],binding result,Rat IgG,no binding
same,binding result,Guinea pig IgG,no binding
same,binding result,Rabbit IgG,no binding
same,binding result,[1],binds more weakly
GGAGAGGGAAGGAGAACGAGCAGGGCAAAAUUUAACUGACAAGCUUAAGUGACACAAAGCCCGG [streptavidin clone 7],binding result,Streptavidin; covalent complex +,binds
GGAGAGGGAAGGAGAACGAGCAGGGUAAAAUUUAACUGACAAGCUAAGUGACACAAAGCCCGG [streptavidin clone 3],binding result,"Streptavidin; no gel shift, differs from clone 7 by a deletion and a C to E change",no binding
GGAGAGGGAAGGAGAACGAGCAUAACGGCAUUGAGCUUAACUGUAAAAGUGACACAAAGCCCGG [streptavidin clone 9],binding result,Streptavidin; covalent complex +,binds
GGAGAGGGAAGGAGAACGAGCCCGGGUAGCCUUAACUGACGCGCUUAAGUGACACAAAGCCCGG [streptavidin clone 6/10],binding result,"Streptavidin; covalent complex +, aptamer dimer bands also without protein",binds
GGAGAGGGAAGGAGAACGAGCGGCACGUAUAACUGACAAACGCUUAAGUGACACAAAGCCCGG [streptavidin clone 2],binding result,Streptavidin; covalent complex +,binds
GGAGAGGGAAGGAGAACGAGCGGGACAGCUUAACUGACGAAAACUUAAGUGACACAAAGCCCGG [streptavidin clone 4/5],binding signal,[2],1000
same,EC50,"Streptavidin; random region only, constant flanks as transcribed from SEQ:6 library [positions count without the 21-nt 5-prime fixed region], half-maximal covalent complex, denaturing SDS-PAGE gel shift, 1 h, similar plots at pH 6.0-8.0",< 10 nM
GGAGAGGGAAGGAGAACGAGCUAGCACCUAACAUUUCUUGAAAUGAAAGUGACACAAAGCCCGG [streptavidin clone 1],binding result,Streptavidin; lacks conserved …,no binding
GGAGAGGGAAGGAGAACGAGCUGGAAACGCAUUAACUAACAAGCUUAAGUGACACAAAGCCCGG [streptavidin clone 8],binding result,Streptavidin; covalent complex +,binds
